In US20170298106A1 one finds binding data, which are given here for eight molecules.

Sequences of proteins named here, by UniProt entry; tags and fusion partners are left off. Residues count along the entry.
UniProt O15123, residues 68-496: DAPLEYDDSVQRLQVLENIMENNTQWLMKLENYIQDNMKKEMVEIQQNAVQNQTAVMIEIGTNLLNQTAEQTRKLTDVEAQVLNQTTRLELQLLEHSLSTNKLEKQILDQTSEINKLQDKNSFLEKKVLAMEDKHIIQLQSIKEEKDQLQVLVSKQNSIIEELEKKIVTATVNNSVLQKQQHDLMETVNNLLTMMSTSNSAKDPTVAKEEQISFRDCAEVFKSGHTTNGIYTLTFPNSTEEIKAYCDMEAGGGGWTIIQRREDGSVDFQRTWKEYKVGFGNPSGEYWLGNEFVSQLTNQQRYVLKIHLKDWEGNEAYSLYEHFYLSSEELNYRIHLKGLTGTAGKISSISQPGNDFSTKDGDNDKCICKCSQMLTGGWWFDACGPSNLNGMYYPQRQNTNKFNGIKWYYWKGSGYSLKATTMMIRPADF

Test [1] deals with angiopoietin-2 (Ang2) (human) (UniProt O15123). The test is described as follows: ELISA, rhAng2-coated wells (320 ng/ml), serially diluted osmotic shock fractions of MRD-MBP fusions, HRP anti-MBP mAb, A450; key to the curve numbers on D00010 FIG. 17B. In general terms: ELISA stands for enzyme-linked immunosorbent assay.
For test [2] the target is unchanged. Put plainly: ELISA, MRD-MBP fusions on plate-bound rhAng2, anti-MBP detection.

No constants are given. Whether binding was seen depends on the method and setting. Some binding calls cover weakened binding; strength is not graded here. Tags and fused reporters may be left off the sequences shown.

B1: 2×Lm32-MBP fusion (protein, not shown: small tags and cut ends)
peptide: PGKGGGSMGAQTNFMPMDNDELLLYEQFILQQGLEGGGSMGAQTNFMPMDNDELLLYEQFILQQGLE
Regarding B1, in test [1], the binding result is given as “binds”. Take PGSGGGSMGAQTNFMPMDNDELLLYEQFILQQGLE (peptide, not shown: small tags and cut ends) [Lm32 KtoS-MBP fusion]: the binding entry in test [1] and in test [2] was “binds” throughout.

Turning to PGKGGGSMGAQTNFMPMNDDEQRLYEQFILQQGLE (peptide, not shown: large carriers; small tags and cut ends) [L1-7D MND], the binding entry in test [1] is given as “binds”. For PGKGGGSMGAQTNFMPMHDDEQRLYEQFILQQGLE (peptide, not shown: large carriers; small tags and cut ends) [L1-7D MHD], the binding entry in test [1] is given as “binds”. For PGKGGGSMGAQTNFMPMSDDEQRLYEQFILQQGLE (peptide, not shown: large carriers; small tags and cut ends) [L1-7D MSD], the binding entry in test [1] is reported as “binds”. In the case of PGKGGGSMGAQTNFMPMGDDEQRLYEQFILQQGLE (peptide, not shown: large carriers; small tags and cut ends) [L1-7D MGD], the binding result in test [1] is given as “binds”. In the case of PGKGGGSMGAQTNFMPMTDDEQRLYEQFILQQGLE (peptide, not shown: large carriers) [L1-7D MTD], in test [1], the binding result is reported as “binds”.

As to PGKGGGSMGAQTNFMPMEDDEQRLYEQFILQQGLE (peptide, not shown: large carriers; small tags and cut ends) [L1-7D MED], in test [1], the binding result is listed as “binds”.
